# Assay results taken from the supplement of paper PMC6411743.
# ± gives the standard deviation of the averaged measurements. This is a selection; strong and weak results do not stand in their true shares.
# How the values were obtained:
# Assay in all cases: NP40-soluble protein abundance relative to vehicle (solubility fold change) (ratio); higher = more soluble protein in presence of AMP-PNP
# [1] = target: T1, Q5SZG2 and related entries (UniProt Q8TAK5)
# T1 sequence (whole entry): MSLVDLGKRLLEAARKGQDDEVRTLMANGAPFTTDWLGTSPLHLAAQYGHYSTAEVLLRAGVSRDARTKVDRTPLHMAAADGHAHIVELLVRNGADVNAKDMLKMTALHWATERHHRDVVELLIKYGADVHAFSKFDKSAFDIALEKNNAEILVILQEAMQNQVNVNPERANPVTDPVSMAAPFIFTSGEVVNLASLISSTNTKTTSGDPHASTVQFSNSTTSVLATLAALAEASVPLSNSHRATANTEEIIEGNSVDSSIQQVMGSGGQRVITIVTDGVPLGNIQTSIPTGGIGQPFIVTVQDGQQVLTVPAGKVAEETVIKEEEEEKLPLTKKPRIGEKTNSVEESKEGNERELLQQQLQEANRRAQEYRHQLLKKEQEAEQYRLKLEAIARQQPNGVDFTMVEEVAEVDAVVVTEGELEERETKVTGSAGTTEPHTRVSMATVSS
# How it was run: (§1)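 Values are fold changes against the detergent-processed vehicle, based on vsn-normalised intensities. Jurkat crude lysate was treated at eight concentrations from 0.1 to 10 mM (10 min at room temperature, then 3 min at 37 °C), solubilised with 0.8% NP40 and benzonase, ultracentrifuged and analysed by TMT-labelled LC-MS/MS over three independent experiments.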
# RABL3 = target: T2, RABL3 (UniProt Q5HYI8)
# T2 sequence (whole entry): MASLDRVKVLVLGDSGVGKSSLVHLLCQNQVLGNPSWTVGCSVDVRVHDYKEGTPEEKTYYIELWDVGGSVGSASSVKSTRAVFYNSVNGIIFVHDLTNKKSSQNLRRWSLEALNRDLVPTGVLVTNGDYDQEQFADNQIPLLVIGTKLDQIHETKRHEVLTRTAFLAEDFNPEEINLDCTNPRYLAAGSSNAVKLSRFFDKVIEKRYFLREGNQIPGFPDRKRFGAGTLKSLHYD
# How it was run: as §1
# RCN1 = target: T3, RCN1 (UniProt Q15293)
# T3 sequence (whole entry): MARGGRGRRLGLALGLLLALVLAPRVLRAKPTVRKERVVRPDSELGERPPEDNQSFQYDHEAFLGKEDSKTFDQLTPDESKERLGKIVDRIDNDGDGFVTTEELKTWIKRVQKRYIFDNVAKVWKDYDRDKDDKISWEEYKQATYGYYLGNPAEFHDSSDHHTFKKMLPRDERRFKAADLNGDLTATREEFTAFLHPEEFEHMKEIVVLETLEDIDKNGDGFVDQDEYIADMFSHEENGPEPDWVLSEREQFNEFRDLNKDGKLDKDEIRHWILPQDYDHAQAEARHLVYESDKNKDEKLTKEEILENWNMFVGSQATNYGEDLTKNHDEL
# How it was run: as §1
# TTF1 = target: T4, TTF1 (UniProt Q15361)
# T4 sequence (whole entry): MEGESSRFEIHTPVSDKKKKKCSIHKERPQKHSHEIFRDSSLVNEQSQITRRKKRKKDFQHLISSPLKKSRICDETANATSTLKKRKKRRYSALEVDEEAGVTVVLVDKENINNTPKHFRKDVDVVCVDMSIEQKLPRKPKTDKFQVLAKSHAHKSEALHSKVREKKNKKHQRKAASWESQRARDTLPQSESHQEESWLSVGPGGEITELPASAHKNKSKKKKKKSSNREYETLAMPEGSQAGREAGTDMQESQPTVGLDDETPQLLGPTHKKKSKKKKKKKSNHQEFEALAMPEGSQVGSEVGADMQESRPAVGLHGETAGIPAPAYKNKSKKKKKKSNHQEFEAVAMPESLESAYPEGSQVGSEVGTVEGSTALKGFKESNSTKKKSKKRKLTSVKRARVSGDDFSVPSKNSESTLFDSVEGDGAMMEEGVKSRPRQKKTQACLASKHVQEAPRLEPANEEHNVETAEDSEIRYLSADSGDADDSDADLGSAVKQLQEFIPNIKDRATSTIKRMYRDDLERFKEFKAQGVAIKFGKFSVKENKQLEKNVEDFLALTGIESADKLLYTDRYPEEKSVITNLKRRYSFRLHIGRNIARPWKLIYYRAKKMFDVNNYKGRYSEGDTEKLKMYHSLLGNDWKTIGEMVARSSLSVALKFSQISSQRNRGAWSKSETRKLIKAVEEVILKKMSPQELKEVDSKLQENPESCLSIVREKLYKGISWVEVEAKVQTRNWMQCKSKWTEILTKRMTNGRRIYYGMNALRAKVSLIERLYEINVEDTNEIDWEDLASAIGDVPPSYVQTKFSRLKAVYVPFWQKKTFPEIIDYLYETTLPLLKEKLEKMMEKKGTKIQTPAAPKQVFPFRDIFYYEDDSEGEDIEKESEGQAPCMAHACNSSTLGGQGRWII
# How it was run: as §1
# UAP1L1 = target: T5, UAP1L1 (UniProt Q3KQV9)
# T5 sequence (whole entry): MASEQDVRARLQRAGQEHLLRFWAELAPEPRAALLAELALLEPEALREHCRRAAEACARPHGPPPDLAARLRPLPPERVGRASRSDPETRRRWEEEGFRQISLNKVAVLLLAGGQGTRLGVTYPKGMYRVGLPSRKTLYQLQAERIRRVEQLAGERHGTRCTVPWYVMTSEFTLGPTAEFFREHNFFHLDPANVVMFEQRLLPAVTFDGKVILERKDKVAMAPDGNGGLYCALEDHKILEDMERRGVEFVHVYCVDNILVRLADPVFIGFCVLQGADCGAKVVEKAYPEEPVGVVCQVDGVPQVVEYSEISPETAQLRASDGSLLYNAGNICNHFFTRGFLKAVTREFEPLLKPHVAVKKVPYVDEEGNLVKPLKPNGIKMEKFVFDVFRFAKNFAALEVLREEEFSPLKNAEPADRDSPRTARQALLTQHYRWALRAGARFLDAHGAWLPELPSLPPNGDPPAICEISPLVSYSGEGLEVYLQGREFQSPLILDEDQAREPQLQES
# How it was run: as §1
# UniProt Q15398-3|Q15398 = target: T6, UniProt Q15398-3|Q15398
# T6 sequence (whole entry): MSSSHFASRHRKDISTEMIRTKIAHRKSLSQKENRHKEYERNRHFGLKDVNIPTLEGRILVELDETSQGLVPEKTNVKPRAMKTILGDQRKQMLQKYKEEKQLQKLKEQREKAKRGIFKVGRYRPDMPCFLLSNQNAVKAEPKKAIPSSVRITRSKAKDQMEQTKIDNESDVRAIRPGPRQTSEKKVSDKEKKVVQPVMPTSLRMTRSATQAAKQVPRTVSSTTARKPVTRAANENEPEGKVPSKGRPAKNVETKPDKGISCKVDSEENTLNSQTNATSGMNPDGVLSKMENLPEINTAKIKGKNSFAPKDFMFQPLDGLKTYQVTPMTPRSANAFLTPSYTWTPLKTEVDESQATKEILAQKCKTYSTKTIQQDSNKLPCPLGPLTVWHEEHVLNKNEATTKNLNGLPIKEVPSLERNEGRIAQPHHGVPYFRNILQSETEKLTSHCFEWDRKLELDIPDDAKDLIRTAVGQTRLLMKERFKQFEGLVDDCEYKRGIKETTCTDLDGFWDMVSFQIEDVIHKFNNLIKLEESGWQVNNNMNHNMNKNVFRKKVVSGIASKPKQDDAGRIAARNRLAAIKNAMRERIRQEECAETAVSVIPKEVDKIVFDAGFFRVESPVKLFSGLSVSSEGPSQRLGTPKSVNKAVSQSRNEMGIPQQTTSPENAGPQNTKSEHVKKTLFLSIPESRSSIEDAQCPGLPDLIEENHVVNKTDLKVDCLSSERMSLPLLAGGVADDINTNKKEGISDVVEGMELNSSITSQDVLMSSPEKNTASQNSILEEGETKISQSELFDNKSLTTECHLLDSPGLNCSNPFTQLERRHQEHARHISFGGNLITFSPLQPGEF
# How it was run: as §1
# [2] = target: T7, UniProt Q15723 and related entries
# T7 sequence (whole entry): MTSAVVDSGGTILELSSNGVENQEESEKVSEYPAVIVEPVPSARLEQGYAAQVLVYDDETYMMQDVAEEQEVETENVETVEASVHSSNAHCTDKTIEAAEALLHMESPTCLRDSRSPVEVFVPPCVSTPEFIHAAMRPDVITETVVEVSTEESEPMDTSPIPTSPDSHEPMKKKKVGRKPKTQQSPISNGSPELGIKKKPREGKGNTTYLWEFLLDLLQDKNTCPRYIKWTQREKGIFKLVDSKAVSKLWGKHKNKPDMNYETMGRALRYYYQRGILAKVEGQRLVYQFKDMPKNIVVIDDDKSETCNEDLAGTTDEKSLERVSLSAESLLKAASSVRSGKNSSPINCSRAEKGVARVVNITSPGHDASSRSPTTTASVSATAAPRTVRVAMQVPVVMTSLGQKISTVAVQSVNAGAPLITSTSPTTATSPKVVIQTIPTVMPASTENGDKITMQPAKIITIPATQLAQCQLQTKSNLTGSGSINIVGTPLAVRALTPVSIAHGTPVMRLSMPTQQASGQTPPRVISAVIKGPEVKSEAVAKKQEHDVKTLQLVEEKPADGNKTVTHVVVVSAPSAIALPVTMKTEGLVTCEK
# How it was run: as §1
# [3] = target: T8, UniProt Q15782-5|H0YE91 and related entries
# T8 sequence (whole entry): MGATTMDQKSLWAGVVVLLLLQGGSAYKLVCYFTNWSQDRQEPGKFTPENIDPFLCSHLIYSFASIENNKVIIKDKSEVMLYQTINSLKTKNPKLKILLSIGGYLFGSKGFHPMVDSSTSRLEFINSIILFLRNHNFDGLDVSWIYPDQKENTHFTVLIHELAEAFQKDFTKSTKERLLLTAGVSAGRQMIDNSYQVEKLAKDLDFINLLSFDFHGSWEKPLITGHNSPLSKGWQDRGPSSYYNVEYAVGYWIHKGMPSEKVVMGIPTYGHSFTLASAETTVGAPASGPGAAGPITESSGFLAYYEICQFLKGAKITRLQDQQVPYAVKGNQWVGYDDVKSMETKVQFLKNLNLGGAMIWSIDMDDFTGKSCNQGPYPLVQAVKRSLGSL
# How it was run: as §1
smiles,measurement,setting,value
Nc1ncnc2c1ncn2[C@@H]1O[C@H](COP(=O)(O)OP(=O)(O)NP(=O)(O)O)[C@@H](O)[C@H]1O [adenylyl imidodiphosphate],NP40-soluble protein abundance,[1]; concentration: 1mM,0.991 ± 0.029
same,NP40-soluble protein abundance,[1]; concentration: 2mM,1.01 ± 0.021
same,NP40-soluble protein abundance,[1]; concentration: 4mM,0.97 ± 0.037
same,NP40-soluble protein abundance,[1]; concentration: 6mM,0.986 ± 0.034
same,NP40-soluble protein abundance,[1]; concentration: 8mM,0.973 ± 0.035
same,NP40-soluble protein abundance,[1]; concentration: 10mM,0.973 ± 0.042
same,NP40-soluble protein abundance,RABL3; concentration: 1mM,0.999 ± 0.025
same,NP40-soluble protein abundance,RABL3; concentration: 2mM,1.02 ± 0.0055
same,NP40-soluble protein abundance,RABL3; concentration: 4mM,1 ± 0.018
same,NP40-soluble protein abundance,RABL3; concentration: 6mM,1.06 ± 0.023
same,NP40-soluble protein abundance,RABL3; concentration: 8mM,1.06 ± 0.033
same,NP40-soluble protein abundance,RABL3; concentration: 10mM,1.03 ± 0.018
same,NP40-soluble protein abundance,RCN1; concentration: 1mM,0.991 ± 0.036
same,NP40-soluble protein abundance,RCN1; concentration: 2mM,1.04 ± 0.042
same,NP40-soluble protein abundance,RCN1; concentration: 4mM,0.975 ± 0.02
same,NP40-soluble protein abundance,RCN1; concentration: 6mM,0.998 ± 0.049
same,NP40-soluble protein abundance,RCN1; concentration: 8mM,0.996 ± 0.014
same,NP40-soluble protein abundance,RCN1; concentration: 10mM,0.975 ± 0.04
same,NP40-soluble protein abundance,TTF1; concentration: 1mM,0.967 ± 0.024
same,NP40-soluble protein abundance,TTF1; concentration: 2mM,0.963 ± 0.024
same,NP40-soluble protein abundance,TTF1; concentration: 4mM,0.957 ± 0.025
same,NP40-soluble protein abundance,TTF1; concentration: 6mM,0.96 ± 0.046
same,NP40-soluble protein abundance,TTF1; concentration: 8mM,0.912 ± 0.02
same,NP40-soluble protein abundance,TTF1; concentration: 10mM,0.949 ± 0.045
same,NP40-soluble protein abundance,UAP1L1; concentration: 1mM,1.02 ± 0.024
same,NP40-soluble protein abundance,UAP1L1; concentration: 2mM,1.02 ± 0.043
same,NP40-soluble protein abundance,UAP1L1; concentration: 4mM,0.993 ± 0.02
same,NP40-soluble protein abundance,UAP1L1; concentration: 6mM,0.993 ± 0.021
same,NP40-soluble protein abundance,UAP1L1; concentration: 8mM,0.989 ± 0.022
same,NP40-soluble protein abundance,UAP1L1; concentration: 10mM,0.987 ± 0.015
same,NP40-soluble protein abundance,UniProt Q15398-3|Q15398; concentration: 1mM,1.03 ± 0.025
same,NP40-soluble protein abundance,UniProt Q15398-3|Q15398; concentration: 2mM,1.06 ± 0.041
same,NP40-soluble protein abundance,UniProt Q15398-3|Q15398; concentration: 4mM,1.02 ± 0.046
same,NP40-soluble protein abundance,UniProt Q15398-3|Q15398; concentration: 6mM,0.978 ± 0.025
same,NP40-soluble protein abundance,UniProt Q15398-3|Q15398; concentration: 8mM,0.949 ± 0.01
same,NP40-soluble protein abundance,UniProt Q15398-3|Q15398; concentration: 10mM,1 ± 0.039
same,NP40-soluble protein abundance,[2]; concentration: 1mM,1.02 ± 0.037
same,NP40-soluble protein abundance,[2]; concentration: 2mM,1.02 ± 0.04
same,NP40-soluble protein abundance,[2]; concentration: 4mM,1.04 ± 0.013
same,NP40-soluble protein abundance,[2]; concentration: 6mM,0.974 ± 0.023
same,NP40-soluble protein abundance,[2]; concentration: 8mM,0.989 ± 0.023
same,NP40-soluble protein abundance,[2]; concentration: 10mM,0.997 ± 0.063
same,NP40-soluble protein abundance,[3]; concentration: 1mM,0.868 ± 0.066
same,NP40-soluble protein abundance,[3]; concentration: 2mM,0.902 ± 0.029
same,NP40-soluble protein abundance,[3]; concentration: 4mM,0.937 ± 0.055
same,NP40-soluble protein abundance,[3]; concentration: 6mM,0.939 ± 0.066
same,NP40-soluble protein abundance,[3]; concentration: 8mM,0.93 ± 0.057
same,NP40-soluble protein abundance,[3]; concentration: 10mM,0.95 ± 0.092

# Reformatted with tabs: part of the list above
smiles	measurement	setting	value
Nc1ncnc2c1ncn2[C@@H]1O[C@H](COP(=O)(O)OP(=O)(O)NP(=O)(O)O)[C@@H](O)[C@H]1O [adenylyl imidodiphosphate]	NP40-soluble protein abundance	[2]; concentration: 4mM	1.04 ± 0.013
same	NP40-soluble protein abundance	[2]; concentration: 6mM	0.974 ± 0.023
same	NP40-soluble protein abundance	[2]; concentration: 8mM	0.989 ± 0.023
same	NP40-soluble protein abundance	[2]; concentration: 10mM	0.997 ± 0.063
